Source: paper PMC4055408
These are yes or no findings as the source states them, for the method shown. In cells and extracts the contact can be indirect. Some binding calls cover weakened binding; strength is not graded here.

Protein sequences, listed by entry. Tags and fused reporters are not part of them.
UniProt P78347: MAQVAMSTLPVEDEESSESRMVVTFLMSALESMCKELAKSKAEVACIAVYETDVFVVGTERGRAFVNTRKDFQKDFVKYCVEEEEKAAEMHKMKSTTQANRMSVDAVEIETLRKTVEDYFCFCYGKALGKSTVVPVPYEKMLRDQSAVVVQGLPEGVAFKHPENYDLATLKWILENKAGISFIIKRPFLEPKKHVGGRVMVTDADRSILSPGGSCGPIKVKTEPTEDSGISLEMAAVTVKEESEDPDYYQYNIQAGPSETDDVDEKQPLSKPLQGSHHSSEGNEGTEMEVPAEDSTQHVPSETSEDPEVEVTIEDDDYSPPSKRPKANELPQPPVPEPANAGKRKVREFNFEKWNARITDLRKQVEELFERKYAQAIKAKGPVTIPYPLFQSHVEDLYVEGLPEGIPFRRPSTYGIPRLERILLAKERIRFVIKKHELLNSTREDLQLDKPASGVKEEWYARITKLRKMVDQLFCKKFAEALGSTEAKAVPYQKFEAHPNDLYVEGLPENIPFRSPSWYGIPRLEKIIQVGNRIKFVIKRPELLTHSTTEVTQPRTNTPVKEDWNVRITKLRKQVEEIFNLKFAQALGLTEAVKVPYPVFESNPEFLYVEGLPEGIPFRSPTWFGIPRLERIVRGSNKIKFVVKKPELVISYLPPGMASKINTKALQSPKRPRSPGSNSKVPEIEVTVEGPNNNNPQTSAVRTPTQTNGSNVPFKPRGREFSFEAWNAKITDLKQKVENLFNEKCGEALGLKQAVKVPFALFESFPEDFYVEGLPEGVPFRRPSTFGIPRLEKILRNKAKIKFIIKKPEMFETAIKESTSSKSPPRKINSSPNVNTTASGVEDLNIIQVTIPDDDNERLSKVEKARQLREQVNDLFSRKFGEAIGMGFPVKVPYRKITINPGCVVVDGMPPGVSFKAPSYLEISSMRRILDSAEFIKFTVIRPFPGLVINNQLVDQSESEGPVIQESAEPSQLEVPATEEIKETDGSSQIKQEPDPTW
UniProt P12004: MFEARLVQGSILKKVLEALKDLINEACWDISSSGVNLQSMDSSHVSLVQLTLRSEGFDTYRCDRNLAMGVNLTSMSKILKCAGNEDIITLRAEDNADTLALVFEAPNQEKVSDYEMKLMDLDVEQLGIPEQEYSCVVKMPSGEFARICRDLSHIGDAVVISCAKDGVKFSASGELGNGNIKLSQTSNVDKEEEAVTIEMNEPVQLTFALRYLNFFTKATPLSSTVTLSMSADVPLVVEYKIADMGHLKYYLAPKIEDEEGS
UniProt Q9UI95: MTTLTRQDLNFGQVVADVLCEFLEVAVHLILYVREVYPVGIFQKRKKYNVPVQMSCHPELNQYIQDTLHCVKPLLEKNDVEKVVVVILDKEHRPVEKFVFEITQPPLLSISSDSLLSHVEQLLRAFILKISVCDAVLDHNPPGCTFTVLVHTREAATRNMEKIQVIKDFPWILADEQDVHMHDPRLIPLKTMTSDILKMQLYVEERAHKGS

Assays:
[1] = molecular target: TFII-I, endogenous (human (endogenous in 293T and U2OS)) (UniProt P78347); assay: co-IP; lysates of parental 293T cells; anti-TFII-I or control IgG coupled to protein A beads; lysis buffer 50 mM Tris-HCl pH 8.0, 250 mM NaCl, 0.5% Triton X-100; blotted for Rev7 and TFII-I
[2] = molecular target: PCNA, endogenous (human (endogenous in U2OS)) (UniProt P12004); assay: co-IP; U2OS cells, untreated or UV 60 J/m^2, fixed with 0.25% formaldehyde; anti-PCNA IP or anti-TFII-I IP; siControl or siTFII-I with Myc-TFII-I plasmids; cross-links reversed, immunoblot
[3] = molecular target: Myc-TFII-I wild type (WT) (human) (UniProt P78347); assay: co-IP; HeLa Tet-On cells transfected with differentially tagged TFII-I plasmids; IgG IP and anti-Myc IP, immunoblot
[4] = molecular target: GST-Rev7 (human) (UniProt Q9UI95); assay: pull-down; 35S-labelled in vitro translated TFII-I or fragments incubated with bacterially expressed GST or GST-Rev7, 1 h at room temperature in 25 mM Tris-HCl pH 8.0, 2.7 mM KCl, 137 mM NaCl, 0.05% Tween-20; Glutathione-Sepharose; phosphor imager; only the target purified

Rev7, endogenous (from UniProt Q9UI95 1-211)
binding [1]: binds

Myc-TFII-I wild type (WT) (from UniProt P78347 1-998)
binding [2]: binds
binding [3]: binds

TFII-I, endogenous (from UniProt P78347 1-998)
binding [2]: binds

in vitro translated Myc-TFII-I (full-length) (from UniProt P78347 1-998)
binding [4]: binds
